Test results reported in patent publication US11098124B2, “CD31 shed as a molecular target for imaging of inflammation” (INSTITUT NATIONAL DE LA SANTE ET DE LA RECHERCHE MEDICALE …, priority 2016, dated 2021).
At least one peptide structure holds a part that was inferred or is arguable (an end, a ring closure or a residue). For at least one compound, name, drawing or mass did not settle the structure. Where a SMILES comes first, the peptide text is derived from it. [ ]: non-standard residue; d: D form. The star is where a group is joined. ξ: configuration not given here. HYNIC = NNc1ccc(C(=O)*)cn1; PEG3 = NCCOCCOCCOCCC(=O)O; ξK = NCCCCC(N)C(=O)O

Tested on: abdominal aorta aneurysm (AAA) rat model of vascular inflammation
Test: SPECT/CT imaging in abdominal aorta aneurysm (AAA) model
Type: in vivo
Settings: AAA animals
Excerpt: Rat model of vascular inflammation that has been set up at the laboratory: the experimental abdominal aorta aneurysm (AAA) induced by local infusion of elastase and followed by intravenous injection of a periodontal bacterium present in human AAA (Porphyromonas gingivalis) and known to induce AAA inflammation (Delbosc et al., 2011, PLoS ONE 6(4): e18679. doi:10.1371/journal.pone.0018679).
Immediately after intravenous injection via the penis vein of 74 MBq of radiolabelled HYNIC-P8RI (obtained using Tricine/EDDA), sequential whole-body acquisitions (every 10 minutes for the first hour) were performed with a hybrid SPECT/CT camera (NanoSPECT/CT, Bioscan Inc.) dedicated to small animals. 10. […] Results 1. Radiolabeling 6-Hydrazinopyridine-3-carboxylic acid (HYNIC) was coupled to the N-terminal amino-acid of the P8RI peptide via a 3(PEG) spacer to obtain HYNIC-P8RI. HYNIC-P8RI was then labeled at high specific activities (>71 GBq/μmol) using tricine, EDDA or Tricine/EDDA as coligands. The tricine/EDDA exchange labeling strategy was chosen because of high labeling yield and resulting in a single major specie as analyzed by HPLC (see FIG. 1).

In the case of `CC(C)C[C@@H](NC(=O)[C@@H](C)NC(=O)[C@H]1CCCN1C(=O)[C@@H](Cc1c[nH]c2ccccc12)NC(=O)C(CCCCN)NC(=O)CCOCCOCCOCCNC(=O)c1ccc(NN)nc1)C(=O)N[C@H](Cc1ccccc1)C(=O)N[C@@H](C(=O)N[C@H](CCCNC(=N)N)C(=O)O)C(C)C` (stereo partly drawn) [99mTc-HYNIC-P8RI, metal not drawn] ({HYNIC-PEG3}-[ξK][dW][dP][dA][dL][dF][dV][dR]-OH), the “Time after injection from which uptake by AAA was detectable” value is reported as ≥ 30 min.
